{"source": "PubChem BioAssay AID1259286 (Sanger Institute, 2017)", "test": "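Kinome knock-downs lethal on their own or synergistic with anchor drugs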 (primary screen)", "cell system": "NCI-H630 human colorectal cancer cells", "reagents": "siRNA pool against human genes", "challenge": "anchor drugs BYL719 at 1 µM, cetuximab at 5 µg/ml or trametinib at 10 nM, or DMSO vehicle alone; exposure time not given", "measured": "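Viability relative to non-targeting pool wells, averaged over replicates, with robust z-score for knock-down alone and a synergy score for each anchor drug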", "scale": "viability z-score, knock-down alone: higher = more viable cells, weaker knock-down effect", "rule for the call": "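Essential call: robust z-score of viability with siRNA alone lower than -3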", "meaning of the calls": "active = essential when knocked down alone; inactive = not essential alone", "note": "In all, the deposit lists 794 reagents; this is an unselected part. In the full data, 17 (2.1%) were called active. 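Calls use knock-down alone only; synergy above 0.15 marked separately; viability seems capped at control level; exposure time not given.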 Unmarked entries are inactive. Not all columns of the deposit are shown. Not given: the amount of reagent, the time to read-out."}
{"gene":"TLK1 (tousled like kinase 1)","viability z-score, knock-down alone":0.464}
{"gene":"PDGFRL (platelet derived growth factor receptor like)","viability z-score, knock-down alone":-1.11}
{"gene":"ARAF (A-Raf proto-oncogene, serine/threonine kinase)","viability z-score, knock-down alone":0.464}
{"gene":"WIPF1 (WAS/WASL interacting protein family member 1)","viability z-score, knock-down alone":0.464}
{"gene":"PINK1 (PTEN induced kinase 1)","viability z-score, knock-down alone":0.464}
{"gene":"TEC (tec protein tyrosine kinase)","viability z-score, knock-down alone":0.464}
{"gene":"NEK6 (NIMA related kinase 6)","viability z-score, knock-down alone":0.464}
{"gene":"DSTYK (dual serine/threonine and tyrosine protein kinase)","viability z-score, knock-down alone":0.464}
{"gene":"PIK3C2G","viability z-score, knock-down alone":0.464}

A portion from the list above, as a working copy:
{"gene":"TLK1 (tousled like kinase 1)","viability z-score, knock-down alone":0.464}
{"gene":"PDGFRL (platelet derived growth factor receptor like)","viability z-score, knock-down alone":-1.11}

Continued.
{"gene":"WEE1 (WEE1 G2 checkpoint kinase)","viability z-score, knock-down alone":"-7.72 (active)"}
{"gene":"IP6K2 (inositol hexakisphosphate kinase 2)","viability z-score, knock-down alone":0.464}
{"gene":"FER (FER tyrosine kinase)","viability z-score, knock-down alone":-1.17}
{"gene":"CAMK1 (calcium/calmodulin dependent protein kinase I)","viability z-score, knock-down alone":0.464}
{"gene":"HUNK (hormonally up-regulated Neu-associated kinase)","viability z-score, knock-down alone":0.0458}
{"gene":"ERBB4 (erb-b2 receptor tyrosine kinase 4)","viability z-score, knock-down alone":0.464}
{"gene":"HCK (HCK proto-oncogene, Src family tyrosine kinase)","viability z-score, knock-down alone":0.464}
{"gene":"SIK2 (salt inducible kinase 2)","viability z-score, knock-down alone":0.464}
{"gene":"CUL1 (cullin 1)","viability z-score, knock-down alone":-1.27}
{"gene":"MAP3K3 (mitogen-activated protein kinase kinase kinase 3)","viability z-score, knock-down alone":0.464}
